Among all 330,000 compounds or so, about 7,700 (2.3%) were called active. Calls come from the whole dose curve; as a rule, active = well fitted inhibition curve with a large enough effect; inconclusive = small, poorly fitted or top-dose-only effect, or effect the other way; inactive = flat fitted curve, though single readings scatter. Inconclusive means that the source gave no clear call. Potencies beside an inconclusive call are fits to weak or partial responses and may not hold up.
Assay: qHTS screen for small molecules that inhibit ELG1-dependent DNA repair in human embryonic kidney (HEK293T) cells expressing luciferase-tagged ELG1; note: nearly all actives have a fitted effect of over 55% in size
Conditions: HEK293T ELG1-luciferase reporter, luminescence, 16 h, DNA damage induced by 5-fluorouridine; series mostly up to 46.1 µM
Method in brief: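 HEK293T cells expressing luciferase-tagged ELG1 (2,000/well) received 5-Fluorouridine plus compound or DMSO for 16 hr at 37 °C. Luciferase was read by ONE-Glo luminescence after 30 min at room temperature.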
Potency is the fitted concentration of half-maximal effect.

**Q.** With `CCS(=O)(=O)C1=NN2C(=N)/C(=C\c3ccc(OS(=O)(=O)c4ccccc4)c(OC)c3)C(=O)N=C2S1` as the compound, how does the Potency read?
**A.** inconclusive: 25.9 µM [activator, single point]

**Q.** For `CCOC(=O)c1sc(N2C(=O)C(O)=C(C(=O)c3ccc(C)o3)C2c2cccc([N+](=O)[O-])c2)nc1C` (configuration not stated), which Potency is on record?
**A.** inconclusive: 29.1 µM [inhibitor, single point]
